# Results: doi:10.1101/2024.11.04.621823
# No constants are given. Whether binding was seen depends on the method and setting. A result given as binding can be weak or reduced; the word gives no strength.
# What was measured:
# [1] = biological target: HP1α chromodomain (CD; aa 18-75); test: ITC
# [2] = biological target: HP1α chromoshadow domain (CSD; aa 110-191); test: ITC
Binder,binding [1],binding [2]
VLRQLSRKASVKVSKTW (dimethyl-lysine at K9 (Kme2)) [AgnoK9me2 (aa 2-18)],binds,
VLRQLSRKASVKVSKTWSGT [Agno (aa 2-21)],,binds
VLRQLSRKLSVKVSKTWSGT [Agno A10/L (aa 2-21)],,binds
VLRQLSRKASVKASKTWSGT [Agno V14/A (aa 2-21)],,binds
